Source: PubChem BioAssay AID504764 (Drosophila RNAi Screening Center, 2011)
Purpose: 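Knock-downs that raise or lower a Notch target reporter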 (primary screen). Cells: Drosophila Kc167 cells. Reagents: long dsRNA against Drosophila genes. Duration: about 5 days (4 days dsRNA, then 24 h after transfection). Treatment: transfection of constitutively active membrane-tethered Notch lacking the extracellular domain, read 24 h later. Measured: 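Firefly luciferase from an E(spl)m3 reporter with active Notch, plus control-promoter and uninduced reporter wells for normalisation; unnormalised counts, duplicate wells a and b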. Direction: induced reporter light, run 1, well a and induced reporter light, run 1, well b: higher = more light from the Notch target reporter with active Notch; control promoter light, run 1, well a and control promoter light, run 1, well b: higher = more light from the viral control promoter (cell number, transfection, viability); uninduced reporter light, run 1, well a: higher = more light from the Notch target reporter without active Notch. Hit rule: 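Wells with low control signal or poorly matching duplicates excluded; duplicates averaged; per source plate, z beyond ±2 for induced/control log2 ratio or beyond ±1.8 for induced/uninduced marks a hit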. Meaning of the calls: active = modifier hit (raised or lowered Notch signal); inactive = not a hit.
In all, the deposit lists about 22,000 reagents; below is an unselected part of those that have a named target and a result. Over the whole deposit, 403 (1.9%) got an active call. 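Unnormalised raw counts per well; ratio z-scores behind the hit calls and whether each hit raises or lowers signal are not deposited.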 Names joined by + are all predicted targets of the reagent. Reagent sequences are not shown. Not given: the amount of reagent.

target | DRSC id | induced reporter light, run 1, well a | induced reporter light, run 1, well b | control promoter light, run 1, well a | control promoter light, run 1, well b | uninduced reporter light, run 1, well a | activity call
Drak (Death-associated protein kinase related) | DRSC19778 | 66710 | 53055 | 1.25e5 | 1.32e5 | 4655 | inactive
GstZ1 (Glutathione S transferase Z1) | DRSC16478 | 1.16e5 | 1.62e5 | 77235 | 66835 | 7920 | inactive
CG16970 (retired record) | DRSC01310 | 1.13e5 | 77850 | 1.28e5 | 1.14e5 | 8015 | inactive
CG16970 (retired record) | DRSC02549 | 1.32e5 | 1.71e5 | 1.74e5 | 1.58e5 | 13770 | inactive
ZnT41F (Zinc transporter 41F) | DRSC04850 | 1.70e5 | 2.35e5 | 1.72e5 | 1.57e5 | 13300 | inactive
CG9123 | DRSC20156 | 94210 | 83695 | 1.09e5 | 98010 | 13860 | inactive
Itpr (Inositol 1,4,5,-trisphosphate receptor) | DRSC12354 | 61920 | 67760 | 63160 | 52895 | 5035 | inactive
Fum4 (Fumarase 4) | DRSC22577 | – | – | – | – | – | inactive
CG30116 | DRSC05935 | 75015 | 88435 | 1.77e5 | 1.48e5 | 7465 | inactive
CG30116 | DRSC06685 | 1.18e5 | 91480 | 86510 | 92375 | 8500 | inactive
Pldn (Pallidin) | DRSC10137 | 1.10e5 | 1.55e5 | 2.30e5 | 1.99e5 | 5438 | inactive
CG42703 | DRSC03973 | 81180 | 1.02e5 | 89995 | 1.02e5 | 8780 | inactive
Ptp69D (Protein tyrosine phosphatase 69D) | DRSC11258 | 1.72e5 | 1.34e5 | 3.06e5 | 1.93e5 | 8350 | inactive
CG4741 | DRSC04485 | 21120 | 19762 | 20705 | 24255 | 1720 | inactive
CG7519 | DRSC11834 | 1.24e5 | 1.06e5 | 1.34e5 | 95635 | 5730 | inactive
bru1 (bruno 1) | DRSC01234 | 10025 | 10105 | 7432 | 5882 | 2735 | inactive
bru1 (bruno 1) | DRSC01236 | 12665 | 13305 | 12205 | 11300 | 3870 | inactive
bru1 (bruno 1) | DRSC01237 | 1.14e5 | 1.20e5 | 1.60e5 | 1.64e5 | 8615 | inactive
bru1 (bruno 1) | DRSC01238 | 94510 | 1.25e5 | 1.25e5 | 1.04e5 | 7945 | inactive
bru1 (bruno 1) | DRSC03485 | 1.86e5 | 1.49e5 | 1.15e5 | 1.28e5 | 15920 | inactive
Mocs1 (Molybdenum cofactor synthesis 1) | DRSC11225 | 1.28e5 | 1.31e5 | 2.43e5 | 1.41e5 | 6740 | inactive
CG31418 | DRSC21780 | – | – | – | – | – | inactive
hec (hector) | DRSC19895 | 1.07e5 | 1.08e5 | 1.34e5 | 1.88e5 | 8805 | inactive
side-IV + CG17025 (retired record) | DRSC15168 | 2.50e5 | 2.56e5 | 2.30e5 | 2.94e5 | 18050 | inactive
CG10559 | DRSC14255 | 1.76e5 | 1.66e5 | 2.23e5 | 2.26e5 | 14890 | inactive
CG4995 | DRSC02801 | 2.24e5 | 2.03e5 | 1.75e5 | 1.76e5 | 14325 | inactive
CG15800 | DRSC04271 | 2.16e5 | 2.04e5 | 2.35e5 | 1.76e5 | 15490 | inactive
GstE6 (Glutathione S transferase E6) | DRSC06676 | 45290 | 27955 | 39125 | 25805 | 3310 | inactive
Spn27A (Serpin 27A) | DRSC03608 | 1.59e5 | 1.33e5 | 1.64e5 | 1.53e5 | 9950 | inactive
Vha36-3 (Vacuolar H[+] ATPase 36kD subunit 3) | DRSC18615 | 1.26e5 | 1.02e5 | 1.67e5 | 1.99e5 | 8510 | inactive
CG3527 | DRSC18307 | 1.44e5 | 1.22e5 | 1.95e5 | 2.13e5 | 11450 | inactive
CG15549 | DRSC15087 | 1.20e5 | 1.17e5 | 1.56e5 | 1.42e5 | 11150 | inactive
CG17375 | DRSC02614 | 67360 | 63590 | 58505 | 53295 | 4328 | inactive
CG8860 | DRSC07291 | 87465 | 95870 | 96875 | 92545 | 9705 | inactive

A portion from the list above:
target | DRSC id | induced reporter light, run 1, well a | induced reporter light, run 1, well b | control promoter light, run 1, well a | control promoter light, run 1, well b | uninduced reporter light, run 1, well a | activity call
ZnT41F (Zinc transporter 41F) | DRSC04850 | 1.70e5 | 2.35e5 | 1.72e5 | 1.57e5 | 13300 | inactive
CG9123 | DRSC20156 | 94210 | 83695 | 1.09e5 | 98010 | 13860 | inactive
